The text below walks through data of PMC2890414.

The chains behind the UniProt entries cited, without tags or fusion partners.
UniProt P21333: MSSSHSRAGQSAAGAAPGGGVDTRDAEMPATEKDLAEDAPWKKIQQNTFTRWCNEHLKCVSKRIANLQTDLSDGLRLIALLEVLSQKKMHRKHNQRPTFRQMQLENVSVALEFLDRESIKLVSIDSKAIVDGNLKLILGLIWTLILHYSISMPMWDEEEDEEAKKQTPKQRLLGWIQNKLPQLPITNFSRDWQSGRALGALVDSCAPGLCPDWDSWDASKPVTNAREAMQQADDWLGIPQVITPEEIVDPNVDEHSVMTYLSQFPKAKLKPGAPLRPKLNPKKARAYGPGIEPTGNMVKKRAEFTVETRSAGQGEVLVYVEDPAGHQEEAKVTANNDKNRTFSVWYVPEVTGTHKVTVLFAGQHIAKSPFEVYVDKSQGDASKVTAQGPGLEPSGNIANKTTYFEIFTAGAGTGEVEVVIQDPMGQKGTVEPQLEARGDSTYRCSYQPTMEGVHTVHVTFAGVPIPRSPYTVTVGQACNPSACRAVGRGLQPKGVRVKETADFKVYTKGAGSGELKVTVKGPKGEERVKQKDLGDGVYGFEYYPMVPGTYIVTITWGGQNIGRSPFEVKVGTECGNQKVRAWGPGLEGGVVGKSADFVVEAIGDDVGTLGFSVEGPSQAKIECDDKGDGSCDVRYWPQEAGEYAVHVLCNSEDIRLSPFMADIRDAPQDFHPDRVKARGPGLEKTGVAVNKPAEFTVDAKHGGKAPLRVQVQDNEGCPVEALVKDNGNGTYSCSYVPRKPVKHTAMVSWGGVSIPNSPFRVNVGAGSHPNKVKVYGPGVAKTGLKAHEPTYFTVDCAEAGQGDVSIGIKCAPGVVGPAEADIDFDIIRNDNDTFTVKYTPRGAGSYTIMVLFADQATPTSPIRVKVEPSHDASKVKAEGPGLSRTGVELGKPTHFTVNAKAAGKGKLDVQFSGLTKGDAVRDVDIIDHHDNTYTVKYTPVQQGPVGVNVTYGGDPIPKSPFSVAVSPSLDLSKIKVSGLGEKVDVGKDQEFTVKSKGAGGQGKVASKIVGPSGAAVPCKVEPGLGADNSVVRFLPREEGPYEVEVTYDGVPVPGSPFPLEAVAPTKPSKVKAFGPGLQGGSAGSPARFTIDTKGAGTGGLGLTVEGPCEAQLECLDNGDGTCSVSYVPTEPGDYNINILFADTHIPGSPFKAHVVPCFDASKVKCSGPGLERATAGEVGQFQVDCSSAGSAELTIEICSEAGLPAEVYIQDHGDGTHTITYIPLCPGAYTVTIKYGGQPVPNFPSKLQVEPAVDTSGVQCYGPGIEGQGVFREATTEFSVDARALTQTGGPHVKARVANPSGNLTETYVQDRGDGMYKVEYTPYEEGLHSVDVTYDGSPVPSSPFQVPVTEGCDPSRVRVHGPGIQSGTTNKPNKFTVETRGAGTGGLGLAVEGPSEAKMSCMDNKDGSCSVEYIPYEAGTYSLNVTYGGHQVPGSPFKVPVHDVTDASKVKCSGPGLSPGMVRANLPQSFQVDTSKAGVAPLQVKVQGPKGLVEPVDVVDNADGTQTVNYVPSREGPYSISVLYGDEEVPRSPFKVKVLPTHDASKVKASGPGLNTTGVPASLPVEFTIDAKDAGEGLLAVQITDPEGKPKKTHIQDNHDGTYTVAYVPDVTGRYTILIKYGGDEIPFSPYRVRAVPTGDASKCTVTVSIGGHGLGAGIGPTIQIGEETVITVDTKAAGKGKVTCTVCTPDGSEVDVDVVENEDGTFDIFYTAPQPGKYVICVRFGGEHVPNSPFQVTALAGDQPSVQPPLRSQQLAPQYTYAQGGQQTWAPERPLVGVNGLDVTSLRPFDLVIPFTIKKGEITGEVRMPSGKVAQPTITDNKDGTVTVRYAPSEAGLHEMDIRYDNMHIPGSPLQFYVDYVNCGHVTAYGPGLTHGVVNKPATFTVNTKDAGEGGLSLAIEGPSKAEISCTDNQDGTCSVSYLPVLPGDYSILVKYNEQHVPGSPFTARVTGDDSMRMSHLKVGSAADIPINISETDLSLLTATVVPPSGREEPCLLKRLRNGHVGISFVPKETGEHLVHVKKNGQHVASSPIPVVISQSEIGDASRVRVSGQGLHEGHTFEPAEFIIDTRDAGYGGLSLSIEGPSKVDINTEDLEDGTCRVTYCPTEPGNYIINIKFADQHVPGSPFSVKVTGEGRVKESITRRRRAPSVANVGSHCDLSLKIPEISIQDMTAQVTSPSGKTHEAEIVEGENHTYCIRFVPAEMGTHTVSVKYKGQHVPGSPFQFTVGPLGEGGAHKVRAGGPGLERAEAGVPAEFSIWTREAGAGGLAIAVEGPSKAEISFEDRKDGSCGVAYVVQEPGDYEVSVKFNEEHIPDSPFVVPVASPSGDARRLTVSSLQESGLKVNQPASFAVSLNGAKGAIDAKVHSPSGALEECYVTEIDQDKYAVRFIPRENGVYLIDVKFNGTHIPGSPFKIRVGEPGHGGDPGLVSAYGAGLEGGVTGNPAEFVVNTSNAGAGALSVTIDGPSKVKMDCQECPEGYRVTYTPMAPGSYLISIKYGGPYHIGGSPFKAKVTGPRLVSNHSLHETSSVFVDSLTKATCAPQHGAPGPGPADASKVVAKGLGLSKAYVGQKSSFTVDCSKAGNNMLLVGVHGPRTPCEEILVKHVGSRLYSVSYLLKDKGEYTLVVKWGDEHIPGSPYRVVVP

The assay deals with His-tagged wild type FLNa (UniProt P21333). As to the kind of experiment: co-IP; M2 cells co-transfected, lysed 48 h post transfection, immunoprecipitated with anti-His conjugated IgG beads or IgG beads alone, immunoblotted with anti-R-Ras antibody. In general terms: A western blot detects proteins with antibodies after separation by electrophoresis.

These are yes or no findings as the source states them, for the method shown. In cells and extracts the contact can be indirect. Some entries that bind do so weakly or less than the wild type.

B1: active R-Ras G38V (protein, UniProt P10301 1-218)
chain: MSSGAASGTGRGRPRGGGPGPGDPPPSETHKLVVVGGVGVGKSALTIQFIQSYFVSDYDPTIEDSYTKICSVDGIPARLDILDTAGQEEFGAMREQYMRAGHGFLLVFAINDRQSFNEVGKLFTQILRVKDRDDFPVVLVGNKADLESQRQVPRSEASAFGASHHVAYFEASAKLRLNVDEAFEQLVRAVRKYQEQELPPSPPSAPRKKGGGCPCVLL
As for B1, the binding entry is recorded as “binds”.
